Measured values published in publication PMC4459967.
Results are given in words; binding and its absence hold for the method and conditions named. In cells and extracts the contact can be indirect. Some binding calls cover weakened binding; strength is not graded here. Where a sequence is shown, tags or fusion partners need not be part of it.

T1: MMS19-Myc (Arabidopsis thaliana) (UniProt Q0WVF8)
T1 sequence: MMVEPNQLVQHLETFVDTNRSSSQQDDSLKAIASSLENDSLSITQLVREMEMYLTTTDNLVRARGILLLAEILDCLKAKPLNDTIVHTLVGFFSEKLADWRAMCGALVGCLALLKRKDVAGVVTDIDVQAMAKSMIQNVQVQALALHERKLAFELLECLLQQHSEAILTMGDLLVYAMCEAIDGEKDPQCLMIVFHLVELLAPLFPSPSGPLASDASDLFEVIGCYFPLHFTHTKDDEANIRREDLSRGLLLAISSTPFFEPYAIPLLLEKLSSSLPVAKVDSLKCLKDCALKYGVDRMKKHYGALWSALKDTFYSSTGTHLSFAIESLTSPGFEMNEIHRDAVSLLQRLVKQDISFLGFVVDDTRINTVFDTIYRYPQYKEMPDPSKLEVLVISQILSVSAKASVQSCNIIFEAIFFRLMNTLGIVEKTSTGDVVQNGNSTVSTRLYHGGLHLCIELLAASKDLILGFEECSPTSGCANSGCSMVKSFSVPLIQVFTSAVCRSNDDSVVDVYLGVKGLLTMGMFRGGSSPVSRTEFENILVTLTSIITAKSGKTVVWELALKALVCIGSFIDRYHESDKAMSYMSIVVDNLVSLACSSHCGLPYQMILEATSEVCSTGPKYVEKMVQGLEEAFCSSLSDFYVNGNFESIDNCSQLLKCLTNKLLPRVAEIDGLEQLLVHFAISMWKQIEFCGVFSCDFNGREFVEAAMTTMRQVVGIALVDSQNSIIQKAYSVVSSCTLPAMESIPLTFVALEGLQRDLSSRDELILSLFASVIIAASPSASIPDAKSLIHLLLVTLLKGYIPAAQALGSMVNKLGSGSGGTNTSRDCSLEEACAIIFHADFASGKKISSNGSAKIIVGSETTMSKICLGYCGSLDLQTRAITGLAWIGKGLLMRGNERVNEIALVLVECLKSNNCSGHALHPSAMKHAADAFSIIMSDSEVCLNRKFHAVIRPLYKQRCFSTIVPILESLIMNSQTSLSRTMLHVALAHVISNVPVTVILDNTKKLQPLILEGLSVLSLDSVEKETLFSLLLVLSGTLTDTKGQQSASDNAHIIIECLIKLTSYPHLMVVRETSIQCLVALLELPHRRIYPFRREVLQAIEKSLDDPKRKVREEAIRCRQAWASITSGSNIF


Target: T1, MMS19-Myc (Arabidopsis thaliana)
Assay: co-IP; total protein extracts of T2 transgenic plants carrying two tagged transgenes, antibody-conjugated beads, washed 5 or 6 times with lysis buffer, Western blotting

Binder	binding
CIA1-Flag (protein, UniProt O80990 1-352) MDLMEKNLELVEIQKLEGHTDRVWSVAWNPVSSHADGVSPILASCSGDNTVRIWEQSSLSRSWTCKTVLEETHTRTVRSCAWSPSGQLLATASFDGTTGIWKNYGSEFECISTLEGHENEVKSVSWNASGSCLATCSRDKSVWIWEVLEGNEYDCAAVLTGHTQDVKMVQWHPTMDVLFSCSYDNTIKVWWSEDDDGEYQCVQTLGESNNGHSSTVWSISFNAAGDKMVTCSDDLTLKIWGTDIAKMQSGEEYAPWIHLCTLSGYHDRTIYSAHWSRDDIIASGAGDNAIRLFVDSKHDSVDGPSYNLLLKKNKAHENDVNSVQWSPGEGNRLLASASDDGMVKIWQLATKP	binds
CIA2-Flag (protein, UniProt Q9C9G6 1-157) MVSGLINENPIIYPKKERRLRTDTSITDELTPEPIDQLEIFDHIRDIKDPEHPNTLEDLRVVTEDSVEVDDENSYVRVTFTPTVEHCSMATVIGLCVRVKLLRSLPSRYKIDIRVAPGSHATEDALNKQLNDKERVAAALENPNLVEMVDECLPSEE	binds
